Drawing on publication PMC10364419, this text covers binding for 1 substance.

Protein sequences, listed by entry. Tags and fused reporters are not part of them. Lines headed by an entry give the natural chain unless they say otherwise; changes in a name come on top.
UniProt O00165: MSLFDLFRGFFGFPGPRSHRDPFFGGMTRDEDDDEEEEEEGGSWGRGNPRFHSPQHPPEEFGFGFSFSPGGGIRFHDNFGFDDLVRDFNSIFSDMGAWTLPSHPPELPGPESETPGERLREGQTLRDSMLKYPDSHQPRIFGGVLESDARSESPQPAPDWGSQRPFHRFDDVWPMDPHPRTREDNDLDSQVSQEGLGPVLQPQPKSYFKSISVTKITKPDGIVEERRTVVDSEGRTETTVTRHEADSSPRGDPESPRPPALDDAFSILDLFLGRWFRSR
UniProt P46940: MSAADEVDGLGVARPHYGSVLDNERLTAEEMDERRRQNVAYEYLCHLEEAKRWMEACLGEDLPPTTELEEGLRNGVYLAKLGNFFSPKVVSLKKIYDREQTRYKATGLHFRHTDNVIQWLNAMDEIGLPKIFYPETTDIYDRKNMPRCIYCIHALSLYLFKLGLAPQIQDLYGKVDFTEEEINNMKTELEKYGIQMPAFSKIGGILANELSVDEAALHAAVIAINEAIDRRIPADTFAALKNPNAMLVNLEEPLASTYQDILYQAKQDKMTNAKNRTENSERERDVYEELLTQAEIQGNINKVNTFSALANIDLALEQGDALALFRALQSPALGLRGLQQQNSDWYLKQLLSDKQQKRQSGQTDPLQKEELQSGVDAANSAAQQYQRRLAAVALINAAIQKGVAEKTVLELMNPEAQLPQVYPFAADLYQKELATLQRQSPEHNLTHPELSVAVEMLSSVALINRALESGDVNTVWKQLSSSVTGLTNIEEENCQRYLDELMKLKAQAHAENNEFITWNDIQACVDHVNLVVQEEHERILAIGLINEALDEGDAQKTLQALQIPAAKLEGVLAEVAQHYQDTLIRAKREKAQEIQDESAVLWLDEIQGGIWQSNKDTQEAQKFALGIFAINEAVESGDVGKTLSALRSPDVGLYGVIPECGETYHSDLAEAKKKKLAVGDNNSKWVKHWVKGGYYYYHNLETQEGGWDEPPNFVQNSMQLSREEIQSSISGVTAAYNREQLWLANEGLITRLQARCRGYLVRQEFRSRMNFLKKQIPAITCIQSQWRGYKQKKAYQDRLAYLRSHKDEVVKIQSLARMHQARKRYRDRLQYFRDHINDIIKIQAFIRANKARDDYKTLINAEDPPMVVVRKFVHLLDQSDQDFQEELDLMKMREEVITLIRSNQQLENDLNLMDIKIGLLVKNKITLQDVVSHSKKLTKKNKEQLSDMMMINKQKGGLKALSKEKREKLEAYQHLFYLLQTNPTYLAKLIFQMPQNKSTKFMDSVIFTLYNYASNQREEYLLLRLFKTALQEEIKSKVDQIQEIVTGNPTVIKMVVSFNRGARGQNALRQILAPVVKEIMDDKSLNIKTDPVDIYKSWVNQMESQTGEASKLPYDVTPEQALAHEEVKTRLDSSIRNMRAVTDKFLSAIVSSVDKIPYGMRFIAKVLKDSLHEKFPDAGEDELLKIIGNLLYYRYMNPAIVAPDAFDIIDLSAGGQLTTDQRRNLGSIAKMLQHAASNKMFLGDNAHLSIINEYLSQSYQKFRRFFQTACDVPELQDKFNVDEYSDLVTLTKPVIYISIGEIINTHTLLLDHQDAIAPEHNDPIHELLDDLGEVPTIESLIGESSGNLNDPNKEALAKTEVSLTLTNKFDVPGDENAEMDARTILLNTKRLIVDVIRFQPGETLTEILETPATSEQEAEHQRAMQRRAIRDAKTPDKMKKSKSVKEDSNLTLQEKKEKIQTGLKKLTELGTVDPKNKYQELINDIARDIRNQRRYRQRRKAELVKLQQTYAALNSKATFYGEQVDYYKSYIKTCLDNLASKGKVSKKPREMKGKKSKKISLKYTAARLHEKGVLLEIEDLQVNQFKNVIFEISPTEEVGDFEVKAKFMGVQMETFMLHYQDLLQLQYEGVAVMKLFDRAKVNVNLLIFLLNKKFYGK

These are yes or no findings as the source states them, for the method shown. In cells and extracts the contact can be indirect.

The target of this experiment is HA-Hax1 (UniProt O00165). Briefly: co-IP; HEK293T cells transfected with Myc- or HA-tagged proteins, NP40 lysis buffer (1% NP40, 20 mM Tris-HCl pH 8.0, 0.8% NaCl, 10% glycerol), HA-agarose beads overnight at 4 °C, immunoblot.

Take “IQGAP1 ΔRGCT mutant (from UniProt P46940) (domain or fragment)”: the binding result is reported as “no binding”.
